In PubChem BioAssay AID587 (National Center for Advancing Translational Sciences (NCATS), 2007):
Values joined by “and” are separate entries in the source; they are usually repeats but may differ in a detail not shown here. Equal entries are not always repeated. Hit rate of the full screen: of about 59,000 compounds, about 35 (0.06%) were called active. The shares of active, inactive and inconclusive entries below differ from those in the screen. No stated cut-off is given here; in the data, active means max dye-equivalent concentration above about 10 nM; inconclusive means between about 1.1 nM and that limit; inactive means weaker than that.

Assay: qHTS Assay for Spectroscopic Profiling in Texas Red Spectral Region
Conditions: Compound fluorescence, Texas Red channel, 547/618 nm; stronger effect = higher value
Outline: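 qHTS profiling of intrinsic compound fluorescence; 100 mM Tris pH 8.0; 15 min RT; ex 547 / em 618 nm; response expressed as Texas Red dye-equivalent concentration from six-point plate standard.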
In the case of CCN(CC)c1ccc2cc(C(=O)Nc3cccnc3N3CCOCC3)c(=O)oc2c1, the max dye-equivalent concentration is reported as “inactive”. With O=C(Cn1ncc2c(=O)oc3ccccc3c21)NCCC1=CCCCC1 the max dye-equivalent concentration was inconclusive: 1.9e-09 M. For Cc1ccc(S(=O)(=O)N2CCCC(C(=O)NCc3ccccn3)C2)cc1 (stereo not drawn), the max dye-equivalent concentration was inconclusive: 1.4e-09 M. With CCNC(=O)CSc1nc2cc(OC)c(OC)cc2c(=O)n1CCC1=CCCCC1 the max dye-equivalent concentration was inconclusive: 3.6e-09 M. In the case of CCOC(=O)c1sc(N)c(C#N)c1CSc1nnc(C2CCCCC2)n1N, the max dye-equivalent concentration is reported as inconclusive: 1.1e-09 M. With CN(C)CCC(=O)c1ccc(Cl)cc1 the max dye-equivalent concentration was inconclusive: 1.1e-09 M. With CC(NC(=O)OCc1ccccc1)C(=O)OCN1C(=O)c2ccccc2C1=O (stereo not drawn) the max dye-equivalent concentration was inconclusive: 1.1e-09 M. In the case of OCCCCNc1cccc2ccccc12, the max dye-equivalent concentration is reported as inconclusive: 1.4e-09 M. In the case of COc1cc(CC(=O)OCC(=O)Nc2ccc(S(=O)(=O)N3CCCC3)cc2)cc(OC)c1OC, the max dye-equivalent concentration is reported as inconclusive: 1.9e-09 M. In the case of Cc1ccc(O)c(-c2cc(C(=O)Nc3ccc(S(=O)(=O)N4CC(C)OC(C)C4)cc3)[nH]n2)c1 (stereo not drawn), the max dye-equivalent concentration is reported as inconclusive: 1.6e-09 M. In the case of CC(C)NC(=O)c1ccc2c(c1)nnn2C, the max dye-equivalent concentration is reported as inconclusive: 1.6e-09 M. For CCn1c(SCC(=O)Nc2cc(C)ccc2C)nnc1-c1cnccn1, the max dye-equivalent concentration was inconclusive: 1.2e-09 M. For Cc1ccc(S(=O)(=O)N2CCN(C(=O)C3Cc4ccccc4CN3C(=O)c3ccco3)CC2)cc1 (stereo not drawn), the max dye-equivalent concentration was inconclusive: 1.2e-09 M. With Clc1ccc(Cn2ncc3c(N4CCCCC4)ncnc32)c(Cl)c1 the max dye-equivalent concentration was inconclusive: 1.5e-09 M. With O=C(Cn1c(NCCO)nc2ccccc21)c1cccs1 the max dye-equivalent concentration was inconclusive: 2.9e-09 M. With COc1ccc(OC)c2[nH]c(=O)c(CCNS(=O)(=O)c3ccccc3)cc12 the max dye-equivalent concentration was inconclusive: 1.7e-09 M. For O[Si@](CCCN1CCCCC1)(c1ccc(F)cc1)C1CCCCC1, the max dye-equivalent concentration was “inactive”. In the case of O=C1C(Cl)=C(NCC2CCCO2)C(=O)N1Cc1ccccc1 (stereo not drawn), the max dye-equivalent concentration is reported as inconclusive: 1.1e-09 M. For CCOC(=O)C1CCN(C(=O)COc2ccc(Br)cc2)CC1, the max dye-equivalent concentration was inconclusive: 1.9e-09 M. For Cc1ccc(C)c(-n2c(CNC(=O)c3ccco3)nnc2SCC(=O)Nc2nccs2)c1, the max dye-equivalent concentration was inconclusive: 1.2e-09 M. For CCOC(=O)c1ccc(N2C(=O)c3n[nH]c(C)c3C2c2ccc(OC)c(OC)c2)cc1 (stereo not drawn), the max dye-equivalent concentration was inconclusive: 1.1e-09 M. With COc1ccc(Br)cc1S(=O)(=O)n1ccnc1C the max dye-equivalent concentration was inconclusive: 1.7e-09 M. For O=C1c2[nH]nc(-c3ccccc3O)c2C(c2cccc(Cl)c2)N1CC1CCCO1 (stereo not drawn), the max dye-equivalent concentration was inconclusive: 1.1e-09 M. With CN(C(=O)CSc1nnc(-c2ccco2)o1)C1CCCCC1 the max dye-equivalent concentration was inconclusive: 1.9e-09 M. With CCOC(=O)c1cnc(-n2nc(C)cc2C)nc1NC the max dye-equivalent concentration was “inactive”. In the case of Cc1cc(C)n2nc(NCc3cccc(Br)c3)nc2n1, the max dye-equivalent concentration is reported as inconclusive: 2.6e-09 M. In the case of COc1ccc(C)cc1N(CC(=O)O)S(=O)(=O)c1ccc(C)cc1, the max dye-equivalent concentration is reported as inconclusive: 1.5e-09 M. For CCOC(=O)c1cc(S(=O)(=O)N2CCN(C(=O)OCC)CC2)cn1C, the max dye-equivalent concentration was inconclusive: 1.4e-09 M. For COc1ccc(Cn2c3nc4ccccc4nc3c3c(=O)n(Cc4ccco4)cnc32)cc1, the max dye-equivalent concentration was inconclusive: 1.5e-09 M. With O=C(Cc1c(F)cccc1Cl)N1CCCC1 the max dye-equivalent concentration was inconclusive: 1.9e-09 M. For NC(=O)C1CCN(c2ncnc3c(-c4ccccc4)nsc23)CC1, the max dye-equivalent concentration was inconclusive: 1.4e-09 M. In the case of COc1ccc2[nH]cc(CCNc3ncncc3-c3ccccc3CN(C)C)c2c1, the max dye-equivalent concentration is reported as inconclusive: 1.5e-09 M. With Cc1ccc(/C(O)=C2/C(=O)C(=O)N(Cc3ccco3)C2c2cccs2)cc1 (stereo not drawn) the max dye-equivalent concentration was inconclusive: 1.1e-09 M. For CCOc1ccc2sc(NS(=O)(=O)c3ccc(OC)c(OC)c3)nc2c1, the max dye-equivalent concentration was inconclusive: 1.4e-09 M. With COCCOC(=O)c1c(C)n(C)c2ccc(OC(=O)N3CCOCC3)cc12 the max dye-equivalent concentration was inconclusive: 1.2e-09 M. With CCn1c(C)nc2cc(S(=O)(=O)C(F)(F)C(F)C(F)(F)F)ccc21 (stereo not drawn) the max dye-equivalent concentration was inconclusive: 1.3e-09 M. In the case of CCc1ccc(N2CC(C(=O)OCC(=O)NC3CCS(=O)(=O)C3)CC2=O)cc1 (stereo not drawn), the max dye-equivalent concentration is reported as inconclusive: 1.9e-09 M. With COC(=O)C(O)(CC(=O)Nc1ccc(Cl)cc1F)C(F)(F)F (stereo not drawn) the max dye-equivalent concentration was inconclusive: 1.7e-09 M. For O=S(=O)(c1ccc(OCC(O)CN2CCN(c3ccccc3)CC2)cc1)N1CCOCC1 (stereo not drawn), the max dye-equivalent concentration was inconclusive: 1.2e-09 M. With CN1CCN(S(=O)(=O)c2ccc(NC(=O)c3ccco3)cc2)CC1 the max dye-equivalent concentration was inconclusive: 1.5e-09 M. For COc1ccc(S(=O)(=O)Nc2cc(OC)c(NC(=O)c3ccco3)cc2OC)cc1, the max dye-equivalent concentration was inconclusive: 2.2e-09 M. For O=C(CN1CCN(c2ccccn2)CC1)N(c1ccccc1)c1ccc2ccccc2c1, the max dye-equivalent concentration was inconclusive: 1.3e-09 M. For CSc1nc(N)c2ncn([C@@H]3O[C@@H](COP(=O)(O)OP(=O)(O)O)[C@@H](O)[C@H]3O)c2n1, the max dye-equivalent concentration was inconclusive: 1.5e-09 M. For Cn1c(=O)[nH]c(=O)c2[nH]c(CN3CCN(C(=O)c4ccco4)CC3)nc21, the max dye-equivalent concentration was inconclusive: 1.4e-09 M. In the case of COC(=O)C1=CN(CCCN2CCCC2=O)C=C(C(=O)OC)C1c1cccs1, the max dye-equivalent concentration is reported as inconclusive: 1.7e-09 M. In the case of COCCN(CC(=O)Nc1ccc(F)cc1)S(=O)(=O)c1ccc(S(=O)(=O)N2CCCC2)cc1, the max dye-equivalent concentration is reported as inconclusive: 1.1e-09 M. With COCCn1c(=O)c(-c2ccc(F)cc2)nc2cnc(OC)nc21 the max dye-equivalent concentration was “inactive”. For O=C(COC(=O)c1cc(S(=O)(=O)N2CCOCC2)ccc1O)NCC1CCCO1 (stereo not drawn), the max dye-equivalent concentration was inconclusive: 2e-09 M. For O=C(Nc1cc(C(F)(F)F)ccc1N1CCOCC1)C1Cc2ccccc2CN1C(=O)c1ccco1 (stereo not drawn), the max dye-equivalent concentration was inconclusive: 1.1e-09 M. In the case of O=C(C1CSC2(c3ccc(F)cc3)CCC(=O)N12)N1CCCCCC1 (stereo not drawn), the max dye-equivalent concentration is reported as inconclusive: 1.2e-09 M. For CCCCCCN=C(C)C1=C(O)C(C(=O)OC)C(C)(C)CC1=O (stereo not drawn), the max dye-equivalent concentration was inconclusive: 1.1e-09 M. With Clc1ccccc1COc1ccccc1-c1nnco1 the max dye-equivalent concentration was inconclusive: 1.2e-09 M. With CCc1ccc(-c2nc(CN3CCC(C(=O)NCCN(CC)c4ccccc4)CC3)c(C)o2)cc1 the max dye-equivalent concentration was inconclusive: 1.3e-09 M. For CCN1CCN(C(=O)c2nn(-c3ccc(OC)cc3)c(=O)c3c2c2ccccc2n3C)CC1, the max dye-equivalent concentration was inconclusive: 1.6e-09 M. In the case of Cc1noc(NS(=O)(=O)c2ccc(NC(=O)COc3ccccc3)cc2)c1C, the max dye-equivalent concentration is reported as inconclusive: 1.2e-09 M. With N[C@H](C(=O)N[C@@H]1C(=O)N2C(C(=O)O)=C(Cl)CS[C@@H]12)c1ccccc1 the max dye-equivalent concentration was inconclusive: 1.2e-09 M and inconclusive: 1.1e-09 M. With CCN(CC)S(=O)(=O)c1ccc(NCc2ccccc2)nc1 the max dye-equivalent concentration was inconclusive: 1.2e-09 M. For CN(C)CCSc1nnc2sc3ccccc3n12, the max dye-equivalent concentration was inconclusive: 1.3e-09 M. With CC(=C1C(=O)c2ccccc2C1=O)N1CCc2ccccc2C1 the max dye-equivalent concentration was inconclusive: 1.1e-09 M. In the case of Cc1cc(C(=O)N2CCN(C(=O)C3CCCO3)CC2)no1 (stereo not drawn), the max dye-equivalent concentration is reported as inconclusive: 1.1e-09 M. For Cc1ccc(C)c(Cn2c(=O)c3c(nc4n3CCN4Cc3ccco3)n(C)c2=O)c1, the max dye-equivalent concentration was “inactive”. For CCOc1ccc(-n2cnnn2)cc1S(=O)(=O)NCc1ccccc1, the max dye-equivalent concentration was inconclusive: 1.4e-09 M. With Cc1cc(C)nc(N2C(=O)CC(C(=O)O)NC2=NCCc2c[nH]c3ccccc23)n1 (stereo not drawn) the max dye-equivalent concentration was inconclusive: 1.2e-09 M. For c1ccc(-c2nc3cc(Cc4ccc5oc(-c6ccccn6)nc5c4)ccc3o2)nc1, the max dye-equivalent concentration was “inactive”. With CC1(C)CC2CC(C)(CN2C(=O)COC(=O)c2ccc(Cl)cc2N)C1 (stereo not drawn) the max dye-equivalent concentration was inconclusive: 1.2e-09 M. In the case of COc1ccc(C(=O)N2CCC3(CCCN(c4ncccn4)C3)CC2)cc1, the max dye-equivalent concentration is reported as “inactive”. With N#Cc1ccc(Cn2c(=O)c(C#N)c3n(c2=O)CCC3)cc1 the max dye-equivalent concentration was inconclusive: 1.2e-09 M. For Cc1ccc(C)c(NC(=O)NCc2ccc(Cl)cc2)c1, the max dye-equivalent concentration was “inactive”. For CC(C)Cc1nc2oc3c(NCc4cccnc4)ncnc3c2c2c1CCC2, the max dye-equivalent concentration was inconclusive: 1.1e-09 M. With CCOC(=O)CSc1nnc(Cc2ccccc2)n1CC1CCCO1 (stereo not drawn) the max dye-equivalent concentration was inconclusive: 1.2e-09 M. For Cn1c(=O)c2c(ncn2CN2CCN(Cn3cnc4c3c(=O)n(C)c(=O)n4C)CC2)n(C)c1=O, the max dye-equivalent concentration was inconclusive: 1.4e-09 M. For Cc1ccc(S(=O)(=O)CC(=O)Nc2ccc(S(=O)(=O)Nc3onc(C)c3C)cc2)cc1, the max dye-equivalent concentration was inconclusive: 1.9e-09 M. For COc1ccc(C(=O)N(Cc2ccco2)Cc2cccs2)c(O)c1, the max dye-equivalent concentration was inconclusive: 1.6e-09 M. In the case of CC(=O)N1CCN(c2nc3cc4c(cc3nc2NS(=O)(=O)c2ccccc2)OCCO4)CC1, the max dye-equivalent concentration is reported as inconclusive: 1.1e-09 M. With COc1ccc(S(=O)(=O)N2CCN(C(=O)c3cccc(Cl)c3)CC2)cc1 the max dye-equivalent concentration was inconclusive: 1.8e-09 M. In the case of CCCCCNC(=O)Cc1ccc(OC)cc1, the max dye-equivalent concentration is reported as “inactive”. In the case of O=C(C1CCN(S(=O)(=O)N2CCOCC2)CC1)N1CCN(c2ccccc2)CC1, the max dye-equivalent concentration is reported as inconclusive: 1.2e-09 M. In the case of COc1cccc(N2C(=O)CC(N3CCC(C(N)=O)(N4CCCCC4)CC3)C2=O)c1 (stereo not drawn), the max dye-equivalent concentration is reported as inconclusive: 1.5e-09 M. For CCSC1=C(C#N)C2(CCCC2)C(C#N)=C(N)N1, the max dye-equivalent concentration was inconclusive: 1.4e-09 M. For Cn1c(Cc2csc(N)n2)nnc1SCC(=O)NCc1ccccc1, the max dye-equivalent concentration was inconclusive: 1.9e-09 M. For CCC(=O)Nc1cccc(NC(=O)COc2ccc(OC)cc2)c1, the max dye-equivalent concentration was inconclusive: 2e-09 M. For CCOc1ccc(-c2nc(-c3ccncc3)no2)cc1OCC, the max dye-equivalent concentration was inconclusive: 3.1e-09 M. For Cc1csc(/C(C#N)=N/O)n1, the max dye-equivalent concentration was inconclusive: 1.1e-09 M.
